## Percent effect of library compounds

Values are the deposited “Percent Effect”, in %. The record does not define 0% and 100%; most values in the screen are far below 50% and negative numbers occur (in some assays of this library far below -100). This is an unselected part of the compounds tested.

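Phenotypic screen: M. tuberculosis growth, cholesterol and DPPC medium, 4 days; the read-out is not stated. Compounds at 500 µM. Direction is inferred from retests: higher values go with more growth inhibition. Size under these conditions: about 18,000 compounds, about 900 of them at 50% or above in at least one test.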

For O=C(NC1CCOCC1)c1ccc(F)cc1 the result was 22.12%. COC(=O)c1cccc(COC(=O)CCNC(C)=O)c1 read 4.02%. Result for CN(C)S(=O)(=O)CCCN1CCCC1c1ccccn1 (stereo not drawn) was -1.006%. CCOc1ccc(Cn2cc(Br)ccc2=O)nc1 gave 29.6%. O=C(NC1CC1)NC(CO)c1ccc(F)cc1 (stereo not drawn) gave 3.433%.

CCCC(=O)NC1CCN(C(=O)c2ccoc2)CC1 gave 3.288%. For NC(=O)C1(N)CCOCC1 the result was 3.892%. With CN1CCCC(NC(=O)c2ccc(=O)n(C)c2)C1 (stereo not drawn) the screen gave 12.62%. CCC(C#N)NC(=O)c1cnc(OC(C)C)c(Cl)c1 (stereo not drawn) read 86.73%. Result for c1coc(C2CCNCC2)n1 was -12.23%.

Result for CCC1C(=O)NCCN1C(=O)c1cnsn1 (stereo not drawn) was -17.21%. Result for COCCOc1ccc(CNC(=O)c2ccoc2)cn1 was -3.569%. Result for O=C(NC1CC1)c1cc(O)nc2ccc(F)cc12 was -27.53%. With CC(=O)N1CCN(c2ccc3nnnn3n2)CC1 the screen gave -9.887%. For Nc1nccnc1C(=O)N1CCCC(C(F)(F)F)C1 (stereo not drawn) the result was -15.5%.

O=C(N[C@@H]1CCNC[C@H]1O)c1ccc2ncccc2c1 read 3.738%. With CC1CCN(C(=O)NCCCOC2CCOCC2)C1 (stereo not drawn) the screen gave -4.872%. For CC1CCCCN1C(=O)CN1CCNCC1 (stereo not drawn) the result was -3.611%. Result for NC(=O)C1CCN(CCSc2ccccc2F)CC1 was 13.94%. CNCCc1ccccc1OC read 91.24%.

COCCn1cnnc1CN(C)Cc1nccs1 gave 5.197%. Cc1[nH]n(-c2ccc(C#N)cc2)c(=N)c1C gave -4.097%. Result for CC(C)(C)c1noc(CN2CCSCC2)n1 was 11.13%. O=C(CCCc1nccs1)NCC(=O)N1CCCCC1 read -9.335%. Cn1nccc1C(=O)Nc1cnn(CC(F)(F)F)c1 gave 22.78%.

For CCNC(=O)CC1CCCCN1CCOC (stereo not drawn) the result was 7.165%. With COCCN1CCN(c2ccccc2C#N)CC1 the screen gave 20.64%. COCCN1CCCC1C(=O)Nc1ccccc1 (stereo not drawn) read 9.908%. For CN1CN(Cc2ccc(Cl)o2)CC1=O the result was 4.593%. With CC(=O)c1csc(NC(=O)Cc2ccc(C)nc2)n1 the screen gave 15.81%.

NCCN1C(=O)c2ccccc2S1(=O)=O gave -7.09%. For CC(N)c1nnc2n1CCCC2 (stereo not drawn) the result was 5.188%. With Cc1c(Br)cccc1CC(=O)NC1CCC(=O)NC1 (stereo not drawn) the screen gave 12.75%. For CC(C)c1ccc(C(N)CNS(C)(=O)=O)cc1 (stereo not drawn) the result was 60.17%. O=C(c1cc(Cl)c[nH]1)N1CCNCC1 gave 15.23%.

For reference, 4 entries once more:

{"smiles": "CC(=O)N1CCN(c2ccc3nnnn3n2)CC1", "percent effect": -9.887}
{"smiles": "CCOc1ccc(Cn2cc(Br)ccc2=O)nc1", "percent effect": 29.6}
{"smiles": "NC(=O)C1(N)CCOCC1", "percent effect": 3.892}
{"smiles": "O=C(c1cc(Cl)c[nH]1)N1CCNCC1", "percent effect": 15.23}

Measurements from “University of Dundee, Small-Polar-MMV Screening Library” (2021), ChEMBL document CHEMBL3988442.